Reference: PubChem BioAssay AID488899 (Broad Institute, 2010)
The campaign covered roughly 330,000 compounds. About 2,800 (0.85%) were called active. The shares of active, inactive and inconclusive entries below differ from those in the screen.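 Rule for the calls: active = mean inhibition across replicates of 60% or more, whatever share of single replicates reaches that level; inconclusive = some that reach 60%, reason not given; inactive = mean inhibition across replicates below 60%.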

Assay: inhibitors of MITF-dependent TRPM1 promoter reporter, primary screen, cell-based, SK-MEL-5, single point, luciferase (AID 488899)
Settings: SK-MEL-5 TRPM1 promoter luciferase, 24 h; at 12.5 µM; hits give high values

| Structure (SMILES) | inhibition |
| --- | --- |
| O=C1C=C(c2c(O)ccc3ccccc23)c2ccccc2C1=O | inconclusive: 60% |
| CC(CC(=O)N(CCC1=CCCCC1)c1c(N)n(Cc2ccccc2)c(=O)[nH]c1=O)c1ccccc1 (configuration not stated) | inconclusive: 61.2% |
| COc1ccc(NC(=O)c2cc([N+](=O)[O-])ccc2O)cc1 | active: 83.7% |
| COc1cc(OC)c2c(-c3cccc(-c4ccc(OC)c(OC)c4)c3)cc(=O)oc2c1 | inconclusive: 61.6% |
| CCN(CC)c1ccc(/C=N/NC(=O)c2nnn(-c3nonc3N)c2C(C)C)c(O)c1 | active: 68.2% |
| CCCC(=O)NC(c1ccc(OC)c(OC)c1)c1cc(Cl)c2cccnc2c1O (configuration not stated) | inconclusive: 60.4% |
| Cc1ccc(S(=O)(=O)Nc2cccc3ncccc23)s1 | active: 99.6% |
| Cc1ccc(S(=O)(=O)Nc2cccc3cccnc23)cc1 | active: 83.2% |
| Cc1cc[n+](C(C)C(=O)c2ccc(-c3ccccc3)cc2)cc1 (configuration not stated) | inconclusive: 60.7% |
| CCOC(=O)/C(=C\c1cccnc1)C(=O)c1cc(C(C)=O)c(Nc2ccccc2)s1 | active: 98.2% |
| COc1ccc(N2CC(C(=O)NC3CCSC3=O)CC2=O)cc1 (configuration not stated) | inactive: 13% |
| Nc1c(C(=O)Nc2nc3ccccc3s2)sc2nc(-c3cccs3)ccc12 | inconclusive: 69.4% |
| CN1CCN(c2ccc(NC(=O)N3CCc4ccccc43)cc2)CC1 | inconclusive: 62.1% |
| CCN(CC)CCCN=C1N[C@@H](c2cccc(C(F)(F)F)c2)C(C(=O)OC)=C(C)N1CC | inconclusive: 63.6% |
| Cc1cc(C(=O)O)ccc1-c1ccc(/C=C2\SC(=O)N(CC(=O)Nc3ccc4c(c3)OCO4)C2=O)o1 | inactive: 7.01% |
| Clc1ccc2oc3c(Cl)ncnc3c2c1 | active: 77.1% |
| CC(C)(C)C(=O)NC(=S)NNC(=O)c1ccc(-c2ccccc2)cc1 | inconclusive: 60.6% |
| Clc1ccc2c(N/N=C/c3ccccc3Br)ccnc2c1 | active: 83.4% |
| COc1cc(C2C(C#N)=C(N)Oc3cc(N(C)C)ccc32)cc2c1OCO2 (configuration not stated) | inconclusive: 63.1% |

| Structure (SMILES) | inhibition |
| --- | --- |
| Cc1[nH]c2ccccc2c1C(=O)CCl | inconclusive: 61.7% |
| Cc1c(F)cccc1NC(=O)CCCCCC1NC(=O)NC1C (configuration not stated) | inactive: -3.01% |
| Cc1ccc(C2CC(C(F)(F)F)n3nc(C(=O)NCc4c(C)nn(C)c4C)c(Cl)c3N2)cc1 (configuration not stated) | inconclusive: 62.2% |
| COc1ccc(CCC(C)N(C)Cc2ccccc2)cc1 (configuration not stated) | inactive: 3.01% |
| O=C1c2ccccc2C(=O)N1CC1c2ccccc2CCN1C(=O)C1CCCCC1 (configuration not stated) | inactive: 8.26% |
| Cc1ccc(C)n1-n1cnc2sc(-c3ccccc3)cc2c1=O | inactive: -17.7% |
| Cc1nc2c(o1)C(=O)c1ccccc1C2=Nc1ccccc1 | active: 93.7% |
| Cc1cc(C(=O)COC(=O)c2cc(O)c3ccccc3c2O)c(C)n1CC1CCCO1 (configuration not stated) | inconclusive: 63.8% |
| COc1ccccc1NS(=O)(=O)c1cc(NC(=O)Nc2ccc(Cl)cc2Cl)ccc1N1CCCCC1 | inactive: 8.02% |
| CCCOc1ccc(C2=NNC(=O)CC2)cc1 | inconclusive: 62.3% |
| COc1ccc(NC(=S)Nc2ccc3nc(C)c(C)nc3c2)cc1 | inactive: -16.2% |
| COc1ccc(NC(=O)c2c(NC(=O)CNCC(C)C)sc3c2CCC3)c(OC)c1 | inconclusive: 60.5% |
| CC(=O)NC(CC(=O)NCc1ccncc1)c1ccccc1 (configuration not stated) | inactive: 12.3% |
| O=C(Nc1ccnn1C1CCN(Cc2cccc(OCCO)c2)CC1)C1CCOC1 (configuration not stated) | inactive: -1.23% |
| Cc1ccc(C)c(-n2c3nc(=O)[nH]c(=O)c-3cc3cc([N+](=O)[O-])ccc32)c1 | inconclusive: 64.2% |
| CCOc1ccc(-c2cc(CCCC(=O)Nc3cccc(OC)c3)no2)cc1 | inconclusive: 61.1% |
| COc1ccc(-c2nsc3c(N4CCCCC4)ncnc23)cc1 | active: 64.7% |
| Cc1cc(C)c(C#N)c(N2CCN(C(=O)C3COc4ccccc4O3)CC2)n1 (configuration not stated) | inactive: -9.22% |
| Cc1c(NC(=O)C(C)OC(=O)c2ccc([N+](=O)[O-])s2)c(=O)n(-c2ccccc2)n1C (configuration not stated) | inconclusive: 69.5% |

| Structure (SMILES) | inhibition |
| --- | --- |
| CC1CCc2cc(F)ccc2N1C(=O)c1cnc2sccn2c1=O (configuration not stated) | inactive: -9.72% |
| Cc1c(CCOC(=O)C23CC4(C)CC(C)(CC(C)(C4)C2)C3)sc[n+]1CC(=O)c1ccccc1 | inconclusive: 76.3% |
| COc1ccc(OCCCC(=O)Nc2ccc(N3CCOCC3)cc2)cc1 | inactive: -0.819% |
| CCOC(=O)CCc1ccc(NC(=O)/C=C/c2ccc([N+](=O)[O-])o2)cc1 | inconclusive: 62% |
| NC1=CC(=O)C(=O)c2ccccc21 | active: 96.7% |
| Cc1ccc(Cn2ncc(Cl)c(Cl)c2=O)cc1 | inconclusive: 65.9% |
| CCc1nc2c(c(=O)c3ccccc3n2C)c(=O)n1C1CCCCCC1 | inconclusive: 61.8% |
| COc1cccc(N(C(=O)CCl)C(C(=O)NCCc2ccccc2)c2cccs2)c1 (configuration not stated) | active: 88.5% |
| COc1cccc2sc(N3CCN(C(=O)c4ccc([N+](=O)[O-])o4)CC3)nc12 | inconclusive: 66% |
| CCOc1cc(/C=C2\CN(C)C/C(=C\c3ccc(O)c(OCC)c3)C2=O)ccc1O | active: 102% |
| CC(C)NC1=C(Cl)C(=O)c2ccccc2C1=O | active: 79.8% |
| CCN1CCN(Cc2c(O)ccc3c2O/C(=C\C=C\c2ccccc2)C3=O)CC1 | inactive: 57.1% |
| CCCn1c(CC)nc([N+](=O)[O-])c1S(=O)(=O)c1ccccc1 | inconclusive: 60.2% |
| OCCCNc1cc(-c2ccnc(Nc3cccc(Cl)c3)n2)ccn1 | inconclusive: 60.2% |
| NC1=C(Cl)C(=O)c2ccc(S(N)(=O)=O)cc2C1=O | active: 96.4% |
| Cc1ccc(-c2cn(-c3ccc(SC(F)F)cc3)c3[n+]2CCC3)cc1 | inconclusive: 61.4% |
| O=[N+]([O-])c1cc(/C=N/NC(=S)Nc2ccccc2Cl)ccc1Cl | inconclusive: 63.3% |
| COc1ccc(N2CCN(C(=O)COC(=O)c3cnccn3)CC2)cc1 | inactive: -2.04% |
| O=C(Nc1ccc(N2CCOCC2)c(Cl)c1)c1ccc([N+](=O)[O-])o1 | inconclusive: 65.3% |

Some of the entries so far, comma-delimited.
Structure (SMILES),inhibition
COc1ccc(N2CC(C(=O)NC3CCSC3=O)CC2=O)cc1 (configuration not stated),inactive: 13%
Nc1c(C(=O)Nc2nc3ccccc3s2)sc2nc(-c3cccs3)ccc12,inconclusive: 69.4%
CN1CCN(c2ccc(NC(=O)N3CCc4ccccc43)cc2)CC1,inconclusive: 62.1%
CCN(CC)CCCN=C1N[C@@H](c2cccc(C(F)(F)F)c2)C(C(=O)OC)=C(C)N1CC,inconclusive: 63.6%
Cc1cc(C(=O)O)ccc1-c1ccc(/C=C2\SC(=O)N(CC(=O)Nc3ccc4c(c3)OCO4)C2=O)o1,inactive: 7.01%
Clc1ccc2oc3c(Cl)ncnc3c2c1,active: 77.1%
CC(C)(C)C(=O)NC(=S)NNC(=O)c1ccc(-c2ccccc2)cc1,inconclusive: 60.6%
Clc1ccc2c(N/N=C/c3ccccc3Br)ccnc2c1,active: 83.4%
COc1cc(C2C(C#N)=C(N)Oc3cc(N(C)C)ccc32)cc2c1OCO2 (configuration not stated),inconclusive: 63.1%
Cc1[nH]c2ccccc2c1C(=O)CCl,inconclusive: 61.7%
